{"source": "patent US8987207B2", "about": "“Peptides which have analgesic effects and which inhibit ASIC channels” (Centre National de la Recherche Scientifique—CNRS, priority 2010, dated 2015)", "format_in_all_cases": "cell-based", "key": {"[1]": {"target": "T1, rat heteromeric ASIC1a+ASIC3 channels (Rattus norvegicus, UniProt O35240+P55926)", "T1 sequence (P55926 1-526)": "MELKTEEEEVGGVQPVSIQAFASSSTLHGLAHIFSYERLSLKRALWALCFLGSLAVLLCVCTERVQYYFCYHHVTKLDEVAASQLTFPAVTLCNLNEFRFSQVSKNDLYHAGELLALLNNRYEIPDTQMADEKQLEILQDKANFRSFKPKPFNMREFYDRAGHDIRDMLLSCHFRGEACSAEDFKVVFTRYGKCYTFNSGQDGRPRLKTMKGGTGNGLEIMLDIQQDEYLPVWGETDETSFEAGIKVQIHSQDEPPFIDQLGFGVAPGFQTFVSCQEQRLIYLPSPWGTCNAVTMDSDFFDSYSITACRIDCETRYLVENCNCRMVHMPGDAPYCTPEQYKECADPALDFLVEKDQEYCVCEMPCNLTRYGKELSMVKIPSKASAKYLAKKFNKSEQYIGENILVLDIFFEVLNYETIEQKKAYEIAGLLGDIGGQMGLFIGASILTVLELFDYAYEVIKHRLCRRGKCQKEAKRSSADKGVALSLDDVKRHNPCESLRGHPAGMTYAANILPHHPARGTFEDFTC", "T1 sequence (O35240 1-533)": "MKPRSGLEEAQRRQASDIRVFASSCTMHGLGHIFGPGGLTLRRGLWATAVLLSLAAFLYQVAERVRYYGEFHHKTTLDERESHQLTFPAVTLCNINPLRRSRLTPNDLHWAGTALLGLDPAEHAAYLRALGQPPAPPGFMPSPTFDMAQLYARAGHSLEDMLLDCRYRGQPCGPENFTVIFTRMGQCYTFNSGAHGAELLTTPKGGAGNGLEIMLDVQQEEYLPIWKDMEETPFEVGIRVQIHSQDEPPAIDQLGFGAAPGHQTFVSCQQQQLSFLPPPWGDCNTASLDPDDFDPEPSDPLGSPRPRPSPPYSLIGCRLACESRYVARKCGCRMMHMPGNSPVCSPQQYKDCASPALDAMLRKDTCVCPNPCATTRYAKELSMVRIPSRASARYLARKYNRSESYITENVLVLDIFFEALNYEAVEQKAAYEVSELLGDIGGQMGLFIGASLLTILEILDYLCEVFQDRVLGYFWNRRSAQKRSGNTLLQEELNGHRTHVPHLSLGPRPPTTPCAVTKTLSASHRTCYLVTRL", "assay": "Patch-clamp, rat heteromeric ASIC1a+ASIC3 current in COS cells"}, "[2]": {"target": "T2, rat homomeric ASIC3 channels (Rattus norvegicus, UniProt O35240)", "T2 construct": "expressed in transfected cells; host or cells: COS cell line", "T2 sequence (O35240 1-533)": "T1 sequence (O35240 1-533)", "assay": "Patch-clamp, rat homomeric ASIC3 current in COS cells"}, "[3]": {"target": "T3, human heteromeric ASIC1a+ASIC2a channels (Homo sapiens, UniProt P78348+Q16515)", "T3 construct": "expressed in transfected cells; host or cells: COS cell line", "T3 sequence (P78348 1-528)": "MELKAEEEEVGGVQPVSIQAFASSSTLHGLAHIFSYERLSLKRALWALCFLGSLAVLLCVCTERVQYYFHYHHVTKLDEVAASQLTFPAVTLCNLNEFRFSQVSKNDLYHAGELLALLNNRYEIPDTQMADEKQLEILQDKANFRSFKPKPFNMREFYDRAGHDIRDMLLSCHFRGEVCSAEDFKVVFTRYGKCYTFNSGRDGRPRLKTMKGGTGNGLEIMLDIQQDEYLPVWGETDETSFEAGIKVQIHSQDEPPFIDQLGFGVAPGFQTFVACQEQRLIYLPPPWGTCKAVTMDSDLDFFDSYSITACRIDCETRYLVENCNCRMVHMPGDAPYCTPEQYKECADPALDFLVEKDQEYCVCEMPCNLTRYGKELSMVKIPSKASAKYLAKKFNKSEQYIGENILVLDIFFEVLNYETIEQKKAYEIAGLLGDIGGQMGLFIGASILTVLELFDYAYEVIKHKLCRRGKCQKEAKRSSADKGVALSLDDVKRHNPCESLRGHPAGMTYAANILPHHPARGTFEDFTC", "T3 sequence (Q16515 1-512)": "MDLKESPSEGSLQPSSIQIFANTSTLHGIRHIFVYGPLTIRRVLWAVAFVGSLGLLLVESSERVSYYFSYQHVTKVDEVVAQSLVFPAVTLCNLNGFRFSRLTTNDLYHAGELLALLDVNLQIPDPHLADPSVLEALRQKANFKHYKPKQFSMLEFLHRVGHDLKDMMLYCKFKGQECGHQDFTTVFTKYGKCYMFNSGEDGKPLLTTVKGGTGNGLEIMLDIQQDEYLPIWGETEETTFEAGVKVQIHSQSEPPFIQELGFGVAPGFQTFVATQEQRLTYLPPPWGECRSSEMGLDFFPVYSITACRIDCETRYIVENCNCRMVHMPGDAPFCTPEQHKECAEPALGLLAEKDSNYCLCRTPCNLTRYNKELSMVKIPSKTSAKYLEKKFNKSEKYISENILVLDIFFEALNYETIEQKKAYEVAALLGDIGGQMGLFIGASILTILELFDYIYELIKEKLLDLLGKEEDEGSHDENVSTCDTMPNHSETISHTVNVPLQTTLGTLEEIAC", "assay": "Patch-clamp, human heteromeric ASIC1a+ASIC2a current in COS cells", "settings": "for IC50: read-out: IC50, inhibition of the human heteromeric ASIC1a+ASIC2a current, whole cell patch-clamp"}, "[4]": {"target": "T4, rat homomeric ASIC2a channels (Rattus norvegicus, UniProt Q62962)", "T4 construct": "expressed in transfected cells; host or cells: COS cell line", "T4 sequence (Q62962 1-512)": "T3 sequence (Q16515 1-512) with S132T, I444L, D471E, V479M, T503A", "assay": "Patch-clamp, rat homomeric ASIC2a current in COS cells"}}, "note": "Numbering of substitutions follows the chain as printed. Not every detail of the peptide structures is certain; ends, links or a residue may be inferred. Bridges are numbered along the chain shown (N, C = ends). Where no end group is shown, it is not given here."}
{"sequence": "LKCFQHGKVVTCHRDMKFCYHNTGMPFRNLKLILQGCSSSCSETENNKCCSTDRCNK (disulfide 3-19, 12-37, 41-49, 50-55) [ASICalgin-2]", "values": [{"measurement": "inhibition of rat heteromeric ASIC1a+ASIC3 channels", "setting": "[1]", "value": "do not inhibit"}, {"measurement": "inhibition of rat homomeric ASIC3 channels", "setting": "[2]", "value": "do not inhibit"}, {"measurement": "IC50", "setting": "[3]", "value": 308, "unit": "nM"}, {"measurement": "inhibition of rat homomeric ASIC2a channels", "setting": "[4]", "value": "do not inhibit"}]}
{"sequence": "LKCYQHGKVVTCHRDMKFCYHNTGMPFRNLKLILQGCSSSCSETENNKCCSTDRCNK (disulfide 3-19, 12-37, 41-49, 50-55) [ASICalgin-1]", "values": [{"measurement": "inhibition of rat heteromeric ASIC1a+ASIC3 channels", "setting": "[1]", "value": "do not inhibit"}, {"measurement": "inhibition of rat homomeric ASIC3 channels", "setting": "[2]", "value": "do not inhibit"}, {"measurement": "inhibition of the human heteromeric ASIC1a+ASIC2a current", "setting": "[3]; 2:1 ratio, peptide 674 nM, pH drop 7.4 to 5.5", "value": "inhibition"}, {"measurement": "IC50", "setting": "[3]", "value": 308, "unit": "nM"}, {"measurement": "inhibition of rat homomeric ASIC2a channels", "setting": "[4]", "value": "do not inhibit"}]}
